Assay [1] addresses Ab-FAR-1^Δsp:eGFP (Aphelenchoides besseyi). The experiment in a line: co-IP; co-expressed in tobacco leaves by Agrobacterium, 48 h; total leaf proteins; immunoprecipitated with anti-GFP antibody, blotted with anti-Flag; Capturem IP & Co-IP Kit.
Assay [2] concerns the target Ab-FAR-1^Δsp:nYFP (Aphelenchoides besseyi). The experiment in a line: split reporter; BiFC: nYFP and cYFP fusions co-expressed in tobacco leaves by Agrobacterium, 48 h; YFP signal seen by fluorescence microscopy.

For two molecules, binding results are on record in PMC9603084.

These are yes or no findings as the source states them, for the method shown. In cells and extracts the contact can be indirect. Binding can be weak; no strength is given. Tags and fused reporters may be left off the sequences shown.

B1: AtADF3:Flag (protein, UniProt Q9ZSK4 1-139)
chain: MANAASGMAVHDDCKLKFMELKTKRTHRFIIYKIEELQKQVIVEKIGEPGQTHEDLAASLPADECRYAIFDFDFVSSEGVPRSRIFFVAWSPDTARVRSKMIYASSKDRFKRELDGIQVELQATDPTEMDLDVFKSRAN
Turning to B1, the binding entry in assay [1] was “binds”.

B2: AtADF3:cYFP (protein, UniProt Q9ZSK4 1-139)
chain: B1 chain
For B2, in assay [2], the binding result was “binds”.
